Consider 5 targets from the supplement of paper PMC12819154, “High-throughput peptide-centric local stability assay extends protein–ligand identification to membrane proteins, tissues and bacteria” (Nature Structural & Molecular Biology, 2025).

Amino acid sequences for entries named in this document (tags omitted). A change or cut given only in a name is not applied to a line headed by its entry.
UniProt Q8CHY6: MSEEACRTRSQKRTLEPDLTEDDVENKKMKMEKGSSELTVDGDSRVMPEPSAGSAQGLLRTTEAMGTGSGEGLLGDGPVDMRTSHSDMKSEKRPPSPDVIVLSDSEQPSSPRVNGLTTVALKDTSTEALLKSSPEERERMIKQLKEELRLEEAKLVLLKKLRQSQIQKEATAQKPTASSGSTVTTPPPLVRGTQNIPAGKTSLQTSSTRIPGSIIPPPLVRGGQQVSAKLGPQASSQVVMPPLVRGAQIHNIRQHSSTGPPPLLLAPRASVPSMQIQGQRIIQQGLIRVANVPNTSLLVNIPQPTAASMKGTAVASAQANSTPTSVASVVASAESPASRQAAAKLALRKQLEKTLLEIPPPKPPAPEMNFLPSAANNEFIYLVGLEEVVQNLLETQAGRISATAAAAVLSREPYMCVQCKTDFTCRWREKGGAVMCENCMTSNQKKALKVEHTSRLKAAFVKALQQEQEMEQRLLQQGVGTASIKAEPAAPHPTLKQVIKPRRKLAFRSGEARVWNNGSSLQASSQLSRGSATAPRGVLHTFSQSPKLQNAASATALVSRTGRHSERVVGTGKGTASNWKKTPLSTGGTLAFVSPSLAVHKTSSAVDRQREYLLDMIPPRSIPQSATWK
UniProt Q8CGC6: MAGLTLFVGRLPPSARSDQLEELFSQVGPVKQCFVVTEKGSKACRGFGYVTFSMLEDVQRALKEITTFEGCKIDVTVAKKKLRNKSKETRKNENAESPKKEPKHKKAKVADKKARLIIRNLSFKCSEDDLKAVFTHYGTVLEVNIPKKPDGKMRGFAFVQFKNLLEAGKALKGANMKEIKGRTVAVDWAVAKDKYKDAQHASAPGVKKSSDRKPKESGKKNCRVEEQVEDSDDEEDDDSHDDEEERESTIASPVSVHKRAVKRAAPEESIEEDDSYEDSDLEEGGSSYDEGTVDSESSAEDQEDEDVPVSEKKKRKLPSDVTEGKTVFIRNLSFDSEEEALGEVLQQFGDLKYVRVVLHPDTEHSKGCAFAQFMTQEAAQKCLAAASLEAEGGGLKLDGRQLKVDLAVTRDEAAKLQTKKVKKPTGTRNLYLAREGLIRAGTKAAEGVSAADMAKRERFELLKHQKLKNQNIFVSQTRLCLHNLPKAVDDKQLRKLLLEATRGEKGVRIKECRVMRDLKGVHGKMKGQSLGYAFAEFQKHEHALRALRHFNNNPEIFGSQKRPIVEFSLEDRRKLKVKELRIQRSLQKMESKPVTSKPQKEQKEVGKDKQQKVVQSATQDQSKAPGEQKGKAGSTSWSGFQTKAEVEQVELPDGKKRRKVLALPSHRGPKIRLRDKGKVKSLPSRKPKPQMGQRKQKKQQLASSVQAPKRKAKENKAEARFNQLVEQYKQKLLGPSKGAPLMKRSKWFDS
UniProt Q8K0C8: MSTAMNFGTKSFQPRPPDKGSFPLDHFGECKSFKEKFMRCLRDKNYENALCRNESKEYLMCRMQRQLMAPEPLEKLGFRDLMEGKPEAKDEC
UniProt Q8CC12: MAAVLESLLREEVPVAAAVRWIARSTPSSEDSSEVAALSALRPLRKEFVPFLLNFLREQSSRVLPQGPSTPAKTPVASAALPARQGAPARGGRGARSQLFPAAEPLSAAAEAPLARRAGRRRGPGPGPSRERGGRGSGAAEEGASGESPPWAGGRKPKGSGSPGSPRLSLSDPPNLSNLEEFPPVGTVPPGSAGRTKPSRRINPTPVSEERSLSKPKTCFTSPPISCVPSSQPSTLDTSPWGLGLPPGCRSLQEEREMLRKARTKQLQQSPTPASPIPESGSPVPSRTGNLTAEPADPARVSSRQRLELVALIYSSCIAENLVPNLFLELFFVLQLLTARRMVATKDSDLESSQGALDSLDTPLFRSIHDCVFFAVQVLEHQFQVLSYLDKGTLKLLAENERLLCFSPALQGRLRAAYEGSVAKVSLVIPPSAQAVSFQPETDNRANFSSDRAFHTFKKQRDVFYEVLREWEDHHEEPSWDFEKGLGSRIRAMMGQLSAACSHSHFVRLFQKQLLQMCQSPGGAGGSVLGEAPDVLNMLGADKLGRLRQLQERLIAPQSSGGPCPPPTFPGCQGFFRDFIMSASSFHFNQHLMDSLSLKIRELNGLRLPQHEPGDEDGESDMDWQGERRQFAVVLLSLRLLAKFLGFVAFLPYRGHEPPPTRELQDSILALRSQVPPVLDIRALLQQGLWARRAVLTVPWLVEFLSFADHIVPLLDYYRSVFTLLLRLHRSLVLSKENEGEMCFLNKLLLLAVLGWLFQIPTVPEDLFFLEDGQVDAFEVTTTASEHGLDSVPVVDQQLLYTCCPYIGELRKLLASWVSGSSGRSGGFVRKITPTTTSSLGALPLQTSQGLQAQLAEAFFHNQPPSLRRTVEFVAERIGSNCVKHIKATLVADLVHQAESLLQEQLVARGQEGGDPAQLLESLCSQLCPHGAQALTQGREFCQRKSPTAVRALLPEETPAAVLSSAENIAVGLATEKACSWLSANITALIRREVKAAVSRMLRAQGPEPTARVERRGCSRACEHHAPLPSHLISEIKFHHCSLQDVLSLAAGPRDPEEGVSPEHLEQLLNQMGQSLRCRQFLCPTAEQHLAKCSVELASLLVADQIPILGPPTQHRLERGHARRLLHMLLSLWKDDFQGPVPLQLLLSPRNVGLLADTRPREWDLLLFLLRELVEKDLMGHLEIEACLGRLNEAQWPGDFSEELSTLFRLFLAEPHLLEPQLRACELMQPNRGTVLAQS
UniProt Q8CG14: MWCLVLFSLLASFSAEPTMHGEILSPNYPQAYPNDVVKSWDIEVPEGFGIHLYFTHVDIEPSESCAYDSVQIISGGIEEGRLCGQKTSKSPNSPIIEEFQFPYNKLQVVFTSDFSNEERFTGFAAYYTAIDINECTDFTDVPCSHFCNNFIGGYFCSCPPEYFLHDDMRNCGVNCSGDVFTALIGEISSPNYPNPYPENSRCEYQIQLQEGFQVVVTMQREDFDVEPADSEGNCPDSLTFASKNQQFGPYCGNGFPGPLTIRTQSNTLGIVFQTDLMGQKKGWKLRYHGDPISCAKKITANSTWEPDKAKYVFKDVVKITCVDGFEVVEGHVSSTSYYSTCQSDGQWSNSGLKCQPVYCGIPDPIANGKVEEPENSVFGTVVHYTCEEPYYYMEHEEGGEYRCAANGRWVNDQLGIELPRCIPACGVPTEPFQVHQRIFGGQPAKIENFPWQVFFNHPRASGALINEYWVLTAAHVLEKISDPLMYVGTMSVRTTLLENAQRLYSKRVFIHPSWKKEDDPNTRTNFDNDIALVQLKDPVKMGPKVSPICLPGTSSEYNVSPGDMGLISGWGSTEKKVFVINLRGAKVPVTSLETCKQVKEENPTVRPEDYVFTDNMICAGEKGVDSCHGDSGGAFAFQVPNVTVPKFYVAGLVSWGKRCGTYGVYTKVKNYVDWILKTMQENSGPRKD

This is one part of the list. Most values lie at the level of the controls, where differences are scatter.

Compound in this experiment: CN[C@@H]1C[C@H]2O[C@@](C)([C@@H]1OC)n1c3ccccc3c3c4c(c5c6ccccc6n2c5c31)C(=O)NC4 [staurosporine]
As to the kind of experiment: log2 fold change of tryptic peptide abundance, ligand vs vehicle (limited proteolysis) (log2 ratio); higher = more trypsin-susceptible (destabilized). The settings on record: ligand concentration: 20 uM; sample: mouse liver crude lysate; replicate design: treated separately.
Take “UniProt Q8CHY6 (peptide sequence: ASVPSMQIQGQR, peptide start residue: 269)”: the log2 fold change worked out at 0.193. For the target “UniProt Q8CGC6 (peptide sequence: KVLALPSHR, peptide start residue: 659)”, the log2 fold change was -0.753. On to “UniProt Q8K0C8 (peptide sequence: GSFPLDHFGECK, peptide start residue: 20)”, for which the log2 fold change is -0.411. As for “UniProt Q8CC12 (peptide sequence: ELQDSILALR, peptide start residue: 663)”, the log2 fold change was -0.391. “UniProt Q8CG14 (peptide sequence: VFVINLR, peptide start residue: 577)”: the log2 fold change is -0.254.
